Among the data in publication PMC4456726 are binding values, retold here.

Chains of the proteins cited; added tags and fusions are not shown. Residues count along the entry.
UniProt P45481, residues 586-665: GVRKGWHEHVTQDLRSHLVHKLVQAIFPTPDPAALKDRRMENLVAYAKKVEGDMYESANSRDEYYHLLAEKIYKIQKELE
UniProt Q01147, residues 87-146: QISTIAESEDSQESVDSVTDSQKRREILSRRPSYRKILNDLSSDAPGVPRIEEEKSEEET

The target of experiment [1] is nuclear localization signal attached N-terminal luciferase-KIX (NLS-lucN-KIX) (UniProt P45481). The experiment is described as follows: split reporter; split luciferase complementation in the cerebral cortex of awake transgenic mice; luciferin (0.25 M, 300 μl) i.p. 5 min before imaging, 5-min exposure, CCD camera; before and 1 h after imipramine (64 mg/kg), or before and after reserpine (0, 0.5, 1 mg/kg/day, 3 days).

Experiment [2] has the same target. The experiment in a line: split reporter; split luciferase complementation in primary cortical culture (E17, DIV 3) of the transgenic mouse; L15 with 5 mM luciferin; before and 1 h after forskolin (10 μM).

Results are given in words; binding and its absence hold for the method and conditions named. In cells and extracts the contact can be indirect. Some entries that bind do so weakly or less than the wild type.

Consider “nuclear localization signal attached KID-C-terminal luciferase (NLS-KID-lucC) (from UniProt Q01147 87-146) (domain or fragment)”, for which the binding entry in experiment [1] and in experiment [2] was “binds” throughout.
